Data taken from patent US20110182817A1 (NATIONAL UNIVERSITY CORPORATION OKAYAMA UNIVERSITY, published 2011).
These are yes or no findings as the source states them, for the method shown. Some binding calls cover weakened binding; strength is not graded here.

The chains behind the UniProt entries cited, without tags or fusion partners. Where a name states a change or a piece, a line headed by the entry shows the natural chain unless it says otherwise. Residues count along the entry.
UniProt P04114, residues 28-4563: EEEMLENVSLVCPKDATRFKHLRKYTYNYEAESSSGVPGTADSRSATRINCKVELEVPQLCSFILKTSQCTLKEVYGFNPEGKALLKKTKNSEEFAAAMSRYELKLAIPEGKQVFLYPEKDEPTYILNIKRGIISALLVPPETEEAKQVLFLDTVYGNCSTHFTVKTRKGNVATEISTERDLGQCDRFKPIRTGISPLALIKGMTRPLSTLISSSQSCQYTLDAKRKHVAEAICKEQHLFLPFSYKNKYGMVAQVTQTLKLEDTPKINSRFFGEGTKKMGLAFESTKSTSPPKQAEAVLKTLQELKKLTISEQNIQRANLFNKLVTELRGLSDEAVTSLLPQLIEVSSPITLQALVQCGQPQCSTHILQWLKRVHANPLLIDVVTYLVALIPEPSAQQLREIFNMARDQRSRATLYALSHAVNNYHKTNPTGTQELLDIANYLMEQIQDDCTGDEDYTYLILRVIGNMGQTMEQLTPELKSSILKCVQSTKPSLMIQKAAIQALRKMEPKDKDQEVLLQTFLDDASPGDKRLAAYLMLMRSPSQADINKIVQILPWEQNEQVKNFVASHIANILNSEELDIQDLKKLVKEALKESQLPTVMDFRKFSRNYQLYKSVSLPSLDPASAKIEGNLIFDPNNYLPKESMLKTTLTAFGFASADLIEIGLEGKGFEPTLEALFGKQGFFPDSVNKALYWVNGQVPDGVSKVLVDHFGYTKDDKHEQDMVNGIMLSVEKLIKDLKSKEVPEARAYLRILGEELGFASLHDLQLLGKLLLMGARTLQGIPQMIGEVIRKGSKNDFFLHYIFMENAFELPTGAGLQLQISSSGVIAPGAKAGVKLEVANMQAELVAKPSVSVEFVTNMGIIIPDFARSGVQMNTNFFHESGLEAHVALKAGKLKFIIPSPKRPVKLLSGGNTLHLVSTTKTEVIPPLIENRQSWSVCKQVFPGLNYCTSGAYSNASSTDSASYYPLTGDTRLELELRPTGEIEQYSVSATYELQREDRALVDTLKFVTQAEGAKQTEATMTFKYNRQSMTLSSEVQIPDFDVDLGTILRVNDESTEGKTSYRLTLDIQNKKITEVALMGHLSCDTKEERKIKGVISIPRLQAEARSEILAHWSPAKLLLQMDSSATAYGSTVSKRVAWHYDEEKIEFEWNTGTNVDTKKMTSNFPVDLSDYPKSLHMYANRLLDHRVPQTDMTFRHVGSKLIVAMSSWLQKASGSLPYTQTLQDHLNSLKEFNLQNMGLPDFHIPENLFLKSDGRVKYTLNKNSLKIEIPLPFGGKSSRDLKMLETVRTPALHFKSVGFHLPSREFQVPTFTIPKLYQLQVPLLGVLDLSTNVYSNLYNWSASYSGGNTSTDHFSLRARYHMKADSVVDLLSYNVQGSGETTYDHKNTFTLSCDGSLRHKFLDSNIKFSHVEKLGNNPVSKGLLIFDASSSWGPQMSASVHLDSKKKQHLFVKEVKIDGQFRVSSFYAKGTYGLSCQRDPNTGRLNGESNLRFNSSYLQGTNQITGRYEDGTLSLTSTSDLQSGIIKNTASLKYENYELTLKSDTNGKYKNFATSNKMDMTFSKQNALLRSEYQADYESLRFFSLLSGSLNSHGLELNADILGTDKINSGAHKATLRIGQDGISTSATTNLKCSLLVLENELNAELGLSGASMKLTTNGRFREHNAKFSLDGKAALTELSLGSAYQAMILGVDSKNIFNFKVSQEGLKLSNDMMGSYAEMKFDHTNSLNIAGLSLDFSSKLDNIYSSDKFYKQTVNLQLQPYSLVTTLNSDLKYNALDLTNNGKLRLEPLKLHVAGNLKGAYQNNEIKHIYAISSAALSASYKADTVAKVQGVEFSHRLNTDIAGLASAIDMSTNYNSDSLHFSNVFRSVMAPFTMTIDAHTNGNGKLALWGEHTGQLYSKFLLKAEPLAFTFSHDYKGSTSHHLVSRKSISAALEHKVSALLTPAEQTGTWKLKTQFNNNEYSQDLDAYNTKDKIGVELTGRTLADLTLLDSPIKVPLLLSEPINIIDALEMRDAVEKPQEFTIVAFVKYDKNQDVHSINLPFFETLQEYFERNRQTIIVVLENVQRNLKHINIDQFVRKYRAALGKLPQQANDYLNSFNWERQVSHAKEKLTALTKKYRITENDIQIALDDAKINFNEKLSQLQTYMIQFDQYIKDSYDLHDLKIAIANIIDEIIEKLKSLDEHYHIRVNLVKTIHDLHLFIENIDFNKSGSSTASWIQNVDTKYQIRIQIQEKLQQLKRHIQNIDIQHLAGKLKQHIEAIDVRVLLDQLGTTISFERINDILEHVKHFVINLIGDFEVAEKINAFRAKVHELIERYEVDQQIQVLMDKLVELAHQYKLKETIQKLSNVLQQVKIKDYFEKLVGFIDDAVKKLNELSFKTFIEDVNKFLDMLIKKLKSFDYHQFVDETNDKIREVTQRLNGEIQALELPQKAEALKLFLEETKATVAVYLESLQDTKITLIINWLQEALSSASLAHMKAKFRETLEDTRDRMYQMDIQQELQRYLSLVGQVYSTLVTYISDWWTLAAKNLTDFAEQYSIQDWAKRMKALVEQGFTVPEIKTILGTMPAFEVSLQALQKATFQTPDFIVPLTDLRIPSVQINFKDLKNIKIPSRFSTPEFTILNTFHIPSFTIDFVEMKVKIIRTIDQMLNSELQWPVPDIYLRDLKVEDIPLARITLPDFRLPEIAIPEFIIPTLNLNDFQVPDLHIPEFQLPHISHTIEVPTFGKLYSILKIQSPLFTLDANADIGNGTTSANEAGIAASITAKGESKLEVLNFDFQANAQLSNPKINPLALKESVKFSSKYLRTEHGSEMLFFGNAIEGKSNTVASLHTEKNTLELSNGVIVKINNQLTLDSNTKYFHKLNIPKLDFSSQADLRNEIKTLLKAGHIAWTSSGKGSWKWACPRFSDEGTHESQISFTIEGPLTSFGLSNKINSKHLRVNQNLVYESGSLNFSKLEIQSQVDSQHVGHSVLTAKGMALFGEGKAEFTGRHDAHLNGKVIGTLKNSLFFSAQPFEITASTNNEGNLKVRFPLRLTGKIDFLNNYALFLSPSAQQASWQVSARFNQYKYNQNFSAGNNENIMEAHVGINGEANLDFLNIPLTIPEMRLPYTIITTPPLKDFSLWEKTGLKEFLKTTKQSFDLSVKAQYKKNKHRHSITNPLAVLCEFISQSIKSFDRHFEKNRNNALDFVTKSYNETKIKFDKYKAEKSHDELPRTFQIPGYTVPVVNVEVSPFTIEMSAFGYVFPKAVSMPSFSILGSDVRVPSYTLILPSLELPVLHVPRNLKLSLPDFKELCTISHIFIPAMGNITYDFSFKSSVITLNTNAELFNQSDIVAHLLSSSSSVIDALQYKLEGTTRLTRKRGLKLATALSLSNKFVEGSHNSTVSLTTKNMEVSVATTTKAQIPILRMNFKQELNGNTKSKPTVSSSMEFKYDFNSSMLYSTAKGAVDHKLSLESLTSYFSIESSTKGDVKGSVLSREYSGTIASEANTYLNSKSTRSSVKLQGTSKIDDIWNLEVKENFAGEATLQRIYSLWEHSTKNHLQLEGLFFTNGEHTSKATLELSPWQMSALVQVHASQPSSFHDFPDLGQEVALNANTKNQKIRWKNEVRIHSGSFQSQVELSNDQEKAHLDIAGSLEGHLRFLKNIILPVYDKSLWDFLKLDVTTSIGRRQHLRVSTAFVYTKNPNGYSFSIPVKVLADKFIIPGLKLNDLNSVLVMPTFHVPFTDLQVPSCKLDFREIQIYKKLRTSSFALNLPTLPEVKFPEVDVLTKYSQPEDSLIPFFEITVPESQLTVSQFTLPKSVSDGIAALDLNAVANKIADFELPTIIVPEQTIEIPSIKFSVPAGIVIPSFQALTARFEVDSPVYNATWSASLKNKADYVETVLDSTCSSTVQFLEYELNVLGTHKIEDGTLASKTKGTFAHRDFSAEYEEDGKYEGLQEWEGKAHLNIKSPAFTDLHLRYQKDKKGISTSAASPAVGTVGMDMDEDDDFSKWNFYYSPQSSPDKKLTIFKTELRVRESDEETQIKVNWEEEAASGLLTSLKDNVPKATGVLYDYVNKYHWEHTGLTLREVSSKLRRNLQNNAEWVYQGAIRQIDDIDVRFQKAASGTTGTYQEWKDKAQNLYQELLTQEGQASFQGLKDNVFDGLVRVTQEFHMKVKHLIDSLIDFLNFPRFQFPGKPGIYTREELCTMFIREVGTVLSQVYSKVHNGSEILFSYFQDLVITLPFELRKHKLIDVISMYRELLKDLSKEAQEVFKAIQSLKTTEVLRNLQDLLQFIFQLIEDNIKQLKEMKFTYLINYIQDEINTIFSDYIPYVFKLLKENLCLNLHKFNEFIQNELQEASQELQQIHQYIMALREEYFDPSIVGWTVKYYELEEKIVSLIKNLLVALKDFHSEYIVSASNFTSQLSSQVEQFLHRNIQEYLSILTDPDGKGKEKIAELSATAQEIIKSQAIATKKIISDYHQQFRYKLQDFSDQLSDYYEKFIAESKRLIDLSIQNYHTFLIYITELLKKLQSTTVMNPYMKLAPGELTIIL
UniProt P02749: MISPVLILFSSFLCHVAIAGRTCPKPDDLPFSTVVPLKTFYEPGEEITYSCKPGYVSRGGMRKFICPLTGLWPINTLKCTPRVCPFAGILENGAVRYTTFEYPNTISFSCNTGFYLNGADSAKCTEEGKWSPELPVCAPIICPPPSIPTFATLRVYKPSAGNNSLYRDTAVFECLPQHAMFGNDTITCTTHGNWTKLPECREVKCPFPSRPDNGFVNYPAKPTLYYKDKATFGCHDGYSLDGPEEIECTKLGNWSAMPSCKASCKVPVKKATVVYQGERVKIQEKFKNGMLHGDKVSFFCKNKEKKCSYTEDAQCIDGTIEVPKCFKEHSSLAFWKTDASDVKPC

Assays:
[1] = molecular target: human LDL oxidatively modified by copper sulfate (human) (UniProt P04114); experiment: ELISA (as described in the Examples)
[2] = molecular target: human LDL oxidatively modified by copper sulfate (human) (UniProt P04114); experiment: ELISA on immobilized Cu-oxidized human LDL, anti-mouse IgM-HRP
[3] = molecular target: T1, human oxidized LDL/β2GPI complex (human) (UniProt P02749+P04114); experiment: competitive inhibition ELISA with free antigen
[4] = molecular target: T1, human oxidized LDL/β2GPI complex (human); experiment: ELISA on complex coated at 1 µg/ml, anti-mouse IgG-HRP
[5] = molecular target: T1, human oxidized LDL/β2GPI complex (human); experiment: ELISA, binding to immobilized oxidized LDL/β2GPI complex
[6] = molecular target: T1, human oxidized LDL/β2GPI complex (human); experiment: competitive inhibition ELISA with free antigen (FIG. 12)
[7] = molecular target: T1, human oxidized LDL/β2GPI complex (human); experiment: competitive inhibition ELISA, free oxidized LDL/β2GPI complex as competitor
[8] = molecular target: T1, human oxidized LDL/β2GPI complex (human); experiment: competitive inhibition ELISA, free oxidized LDL/β2GPI complex in solution against immobilized oxidized LDL/β2GPI

Measured: binding

B1: CL15-203 (antibody, IgM, V domains shown)
VH: QVQLKESGPGLVAPSQSLSITCTVSGFSLTDYGVSWIRQPPGKGLEWLGVIWGGGSTYYNSALKSRLSISKDNSKSQVFLKMNSLQTDDTAMYYCAKHGRMGRKNYFDYWGQGTTLTVSS
VL: DVQITQSPSYLAASPGETITINCRASKSISKYLAWYQEKPGKTNKLLIYSGSTLQSGIPSRFSGSGSGTDFTLTISSLEPEDFAMYYCQQHNEYPYTFGGGTKLEIK
binds: [1] | [2]

B2: antibody 3H3 (antibody, V domains shown)
VH: EVQLVESGGGLVKPGGSLKLSCAASGFTFSSYAMSWARQTPEKRLEWVATISSGGSYTYYPDSVRGRFTISRDNAKNTLYLQMCSLRSEDTAMYYCARFDGYYAMDYWGQGTSVTVSS
VL: DIVMTQSHKFMSTSVGDRVSITCKASQDVGSAVAWYQQKPGQSPKLLIYWASTRHTGVPDRFTGSGSGTDFTLTISSLQSEDLADYFCQQYSSYPLTFGSGTKLEIK
not listed: [1] | [2]
binds: all other assays above

B3: CL19-107 (antibody, IgM, V domains shown)
VH: EVQLQQSGPELVKPGASVKISCKTSGYTFTEYTMHWVKQSHGKSLEWIGGINPNNGGTSYNQKFKGKATLTVDKSSSTAYMELRSLTSEDSAVYYCARSGDYGTGAWFAYWGQGTLVTVSA
VL: DIVMSQSPSSLAVSAGEKVTMSCKSSQSLLNSRTRKNYLAWYQQKPGQSPKLLIYWASTRESGVPDRFTGSGSGTDFTLTISSVQAEDLAVYYCKQSYNLFTFGSGTKLEIK
binds: [1] | [2]
